# Data: the supplement of paper PMC3334620
# In all, about 33,000 sequences were measured (“E-score (-0.5 to 0.5)”: median about -0.015, highest 2% from about 0.3 on). The list shows a part of the results.
# Target: T1, Abf1 (UniProt P14164)
# T1 sequence: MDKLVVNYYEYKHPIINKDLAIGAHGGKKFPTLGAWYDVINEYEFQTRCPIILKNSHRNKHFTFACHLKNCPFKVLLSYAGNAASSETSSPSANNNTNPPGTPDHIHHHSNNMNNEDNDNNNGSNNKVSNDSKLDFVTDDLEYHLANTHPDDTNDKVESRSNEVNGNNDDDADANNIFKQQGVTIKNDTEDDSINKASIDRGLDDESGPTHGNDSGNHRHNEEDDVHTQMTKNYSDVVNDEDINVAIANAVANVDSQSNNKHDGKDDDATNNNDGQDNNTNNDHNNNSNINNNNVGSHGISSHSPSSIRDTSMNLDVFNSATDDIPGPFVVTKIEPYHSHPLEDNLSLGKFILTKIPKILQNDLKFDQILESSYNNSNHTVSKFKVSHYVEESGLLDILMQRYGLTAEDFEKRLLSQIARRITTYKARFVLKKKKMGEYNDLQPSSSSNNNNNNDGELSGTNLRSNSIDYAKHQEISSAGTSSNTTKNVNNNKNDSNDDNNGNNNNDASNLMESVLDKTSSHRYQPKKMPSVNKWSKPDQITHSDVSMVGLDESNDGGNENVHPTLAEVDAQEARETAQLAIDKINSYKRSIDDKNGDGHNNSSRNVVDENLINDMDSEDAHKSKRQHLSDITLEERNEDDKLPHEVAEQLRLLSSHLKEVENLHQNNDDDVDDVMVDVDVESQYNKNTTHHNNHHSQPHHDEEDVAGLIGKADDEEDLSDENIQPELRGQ
# Assay: PBM E-score (8-mer binding enrichment) (E-score (-0.5 to 0.5)); higher = stronger / more preferred TF binding
# Conditions: protein concentration: 200 nM; construct: GST-full length
# In short: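 Each ungapped eight-base word and its reverse complement, pooled, received an E-score from the Universal PBM Analysis Suite. Underlying scans, normalised with masliner, recorded fluorescent anti-GST bound to GST-tagged yeast transcription factors. These were applied at about 100-200 nM to universal all-10-mer Agilent arrays double-stranded by primer extension.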
row,Sequence,PBM E-score
1,CACAGAGG,-0.113
2,GGACCTAC,-0.14
3,ACACTTCG,0.0805
4,CCTGGCCG,0.107
5,AGGTAATG,0.0091
6,GCTTGGAA,-0.0616
7,AATTTAAA,0.12
8,GCCTGCGA,-0.174
9,CGCTTTAC,-0.0157
10,GCCAAGGA,-0.204
11,AACGGGGA,-0.102
12,CGCGGACA,0.114
13,CGTGTTTA,0.239
14,GCGGGAGA,-0.124
15,CTGTTAGC,-0.131
16,TCATCCAA,0.215
17,AATGAACT,-0.177
18,GCAATTGA,-0.0735
19,CACACGGC,0.163
20,CAGTATAG,-0.018
21,AAAGATGA,0.212
22,ACTAAATC,0.037
23,CGCGCGCC,0.17
24,CAAAACGC,0.00331
25,AGATTGAG,0.208

row,Sequence,PBM E-score
1,GGAAGTGA,0.329
2,CAATCACC,0.0554
3,AAGATGAC,0.313
4,CCAAGGCG,-0.187
5,ACAGAGGC,-0.262
6,ATAAGTAC,0.0856
7,GACACCGC,-0.0338
8,CCGCAGAC,-0.162
9,CGTTTTTC,-0.0523
10,ATTAAGGG,-0.229
11,AAGGATAT,0.0906
12,GAGTCAAC,-0.237
13,AAGAAGGA,-0.175
14,TGAGTGCA,-0.156
15,ACACCGCA,-0.122
16,CCCGCAAG,-0.441
17,AATTAGGA,-0.0241
18,AACACCCG,0.0332
19,AATTTTTA,0.0762
20,CTTGAAAC,0.0891
21,GCGTGTCA,0.0814
22,GCCCGGGC,-0.245
23,ACTCCAGA,-0.169
24,CACTCTTA,0.0437
25,GACACCTC,-0.0457

row,Sequence,PBM E-score
1,ATGCGCAC,0.0461
2,CTTCGACA,-0.0739
3,AGAACGAT,0.235
4,ACTAGTAG,0.00272
5,ATCGTACA,0.34
6,AGGTCTCA,-0.0189
7,AGGAAGAG,-0.223
8,CATCCTAG,-0.0044
9,ACACTCTA,-0.0336
10,CGGAATAC,0.131
11,AAATGTCA,0.223
12,GAGAGTGA,0.324
13,ACGGAGAG,-0.0672
14,TCCTCACA,-0.0619
15,TACTAAAA,0.0949
16,ACCCGTCT,0.0119
17,ATTTTTTA,0.193
18,AATGTATG,0.123
19,AGCCCGCG,-0.281
20,CCGAACGA,0.251
21,GGGAAACA,0.0707
22,CATCCATG,0.00463
23,GACCGGAA,-0.191
24,TGTCGGAA,0.0147
25,GATCGCCA,0.165

# Nothing new here: entries from further up.
row,Sequence,PBM E-score
22,CATCCATG,0.00463
23,GACCGGAA,-0.191
24,TGTCGGAA,0.0147
25,GATCGCCA,0.165

# Random excerpt: 3 records from the list
row,Sequence,PBM E-score
19,AGCCCGCG,-0.281
10,CGGAATAC,0.131
20,CCGAACGA,0.251

# (next part)

row,Sequence,PBM E-score
1,AGGGCGAA,-0.299
2,AAAGCGTG,0.071
3,CAAACGAC,0.198
4,CCTGAGGC,-0.205
5,CCAGCCCA,-0.323
6,AGCGGTGC,-0.19
7,GATATTAC,0.253
8,CGCGTTTC,-0.0291
9,AGGTGTAG,-0.148
10,CATGCAGA,-0.0122
11,AATCGTAT,0.297
12,AGCGGCAC,-0.138
13,CTAGGCTA,-0.227
14,AAATATTC,0.0874
15,GGGTAACC,-0.116
16,CGAGTAAA,0.0829
17,AAATAGAA,-0.0319
18,GTCTGGGA,-0.0546
19,CCCTTGGC,-0.307
20,GCGCTAAA,-0.0793
21,GTTCGTTA,0.185
22,AAGTCGGT,-0.113
23,GGCACTAC,-0.0775
24,CGATTTAG,0.123
25,ACTATTCC,0.0201

row,Sequence,PBM E-score
1,ATGTGCGG,-0.0823
2,GGTACTGA,-0.0964
3,GAGTCGCC,-0.107
4,CGGTTGAG,0.155
5,GGCGTTGA,0.0525
6,CAACACAG,-0.0303
7,GTTACTGA,0.121
8,ACCTTGCC,-0.0345
9,ACGCCAAC,-0.142
10,GGCCGAGA,-0.141
11,TGCTGGAA,-0.0981
12,AACGCGTA,0.012
13,AGAACACG,0.0555
14,GACCCGGA,-0.171
15,CCAAGTGC,-0.225
16,ACACGCCC,-0.121
17,GGAATCAA,-0.0539
18,GACATGGC,-0.0908
19,CATACCCG,-0.0744
20,GAGTACAA,0.149
21,CCCGAGCA,-0.105
22,CGGACAAC,0.0819
23,ATAGTGAA,0.0719
24,ACAAACAT,0.0383
25,AAAAGCTG,-0.101

row,Sequence,PBM E-score
1,AATAATGT,0.0517
2,CACATGAC,0.144
3,CGAACGGA,0.0894
4,ATGTCTTA,0.0404
5,CCAGCTAA,-0.0589
6,ATTCAGTA,0.0888
7,ACACGGGT,-0.0695
8,CCAGAGTC,-0.092
9,GTAACGCA,0.0637
10,ACCTACAC,-0.063
11,GACCGGCA,-0.302
12,GTGATGAA,0.207
13,GTAATGCA,-0.123
14,TCCCAAGA,-0.0087
15,GTACCCCA,-0.129
16,CTACGTCC,0.0118
17,ACAGGGCT,-0.245
18,CCCCTCAA,-0.194
19,GGGCTTAC,-0.0964
20,AAGGTGTG,-0.216
21,ATTTAAGA,0.0589
22,ACGTAGCC,0.0785
23,ACATTACC,0.0683
24,ATTAGCCA,-0.143
25,ACATGATA,0.315

row,Sequence,PBM E-score
1,ACCTCGAA,-0.0838
2,ACAGGAAA,0.0114
3,CCGGGGAC,-0.198
4,GTCTATCA,0.00113
5,ACAGAATA,0.0746
6,GAATACAC,-0.0981
7,GCTGTTCA,-0.0631
8,AGGTTACA,0.0369
9,TAGGACAA,-0.0173
10,GCAAGTGA,0.157
11,AATCCAAA,0.0599
12,GCCACCTA,-0.182
13,CCCGTGGC,-0.0649
14,AATTCACG,0.106
15,GTGCAGCA,-0.178
16,CATGGGCA,-0.139
17,AACTGGGC,-0.307
18,AGGGCCGG,-0.278
19,AACTTTTC,-0.0439
20,AAGTAGGG,-0.0151
21,CAACCTAC,-0.122
22,GGGACGCA,-0.174
23,AACATCCC,-0.00865
24,CGCACTAG,-0.0426
25,CTATCCCC,-0.3

row,Sequence,PBM E-score
1,AATTGACC,0.109
2,CAGTATTA,-0.0806
3,ACGAGAAT,0.194
4,AAACTGCA,-0.0426
5,CAGGACGA,0.268
6,AGGTTCCC,-0.2
7,CGCTCTAG,-0.276
8,GTCTACAC,-0.0648
9,CATCCCTA,0.0381
10,CCTACTGC,-0.0438
11,ACCGGAAG,0.052
12,AGAGCTAT,-0.142
13,GTCAGTAA,-0.0323
14,AATATCCG,0.153
15,AACTAACA,0.183
16,AAGCATCT,-0.0815
17,CGAGCGAC,0.0297
18,AGTAACCA,-0.144
19,AACCACTC,-0.193
20,ACAATTGT,-0.0948
21,ACCTATGA,-0.0753
22,CCCTATCA,-0.0764
23,CTTGCGGC,-0.151
24,CTCCAGGC,-0.139
25,CTTCTGCA,0.071

# Part of the list above, bar-delimited.
row | Sequence | PBM E-score
3 | ACGAGAAT | 0.194
4 | AAACTGCA | -0.0426
10 | CCTACTGC | -0.0438

# Remaining list, next part:

row,Sequence,PBM E-score
1,GCGAACGA,0.0921
2,ATGCGACA,0.207
3,ACACCCTC,-0.235
4,GGCCGGCC,-0.146
5,AATCCCGG,-0.189
6,GGCAGCAA,-0.156
7,ACAATTTA,-0.0719
8,TCACACAA,0.0163
9,GAATCTGA,0.0765
10,AACGCACG,0.243
11,AATCGTGT,0.271
12,AAGATGTC,0.0418
13,ACGTCCGA,0.137
14,AGTCTTAC,-0.152
15,AGCTTGCA,-0.178
16,AAGTTTGA,0.00335
17,CACGAGCC,0.16
18,AACTCGGA,-0.116
19,AGACGTCA,0.107
